This note sets out measurements from paper PMC5341030.

Protein sequences, listed by entry. Tags and fused reporters are not part of them. Lines headed by an entry give the natural chain unless they say otherwise; changes in a name come on top.
UniProt Q7G1L2: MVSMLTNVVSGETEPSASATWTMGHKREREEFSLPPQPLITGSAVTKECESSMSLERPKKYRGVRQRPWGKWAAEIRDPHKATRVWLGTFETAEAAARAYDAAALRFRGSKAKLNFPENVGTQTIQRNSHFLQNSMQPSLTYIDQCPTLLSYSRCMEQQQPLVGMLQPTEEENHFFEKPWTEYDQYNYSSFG

Construct, isoform or probe ends are uncertain for at least one entry. A weaker result is weaker than the reference pair of the same experiment. At least one verdict was read from the data and is not stated in words by the source.

The target in this series is RAP2.6 (His-HA-RAP2.6) (Arabidopsis thaliana) (UniProt Q7G1L2). Nature of the series: EMSA. To be noted: 10 mM Tris, 50 mM KCl, 1 mM DTT, 1 ug poly(dI-dC), pH 7.5, 20 ul, room temperature 20 min, 6% PAGE in 0.5x TBE, recombinant protein, residues 1-192, protein details: His-HA (N-terminal, pET28a), label: biotin. Background: A gel shift assay detects complexes by their altered migration in electrophoresis.

As for “GGAATTCAGCCGCCAGCCGCCAGCCGCCAGCCGCCTCTAGAGC (double strand) [4xGCC element (GCC-box)]”, the binding result is, setting by setting: (no RACK1B, 0.5 ug RAP2.6, 100 fmol probe) “binds”; (with increasing RACK1B (P2): binding decreased) “binds more weakly”.

As to “GGAATTCTGCCACCGGTGCCACCGGTGCCACCGGTGCCACCGGTCTAGAGC (double strand) [4xCE1 element]”, the binding result is, setting by setting: (no RACK1B, 1 ug RAP2.6, 50 fmol probe) “binds”; (with increasing RACK1B (P2): binding gradually improved) “binds”.
